PubChem BioAssay AID1259424, University of Nebraska Medical Center, 2018
Aim: 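Seek colon cancer survival genes behaving like KSR1, using a six-gene signature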 (primary screen). System: human HCT116 colon cancer cells. Reagents: siRNA pool against human genes, 50 nM. Detection: 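Log2 levels of six mRNAs (branched-DNA multiplex), adjusted by two reference genes and the non-targeting median, then scored against the average KSR1 knockdown pattern as Pearson r and euclidean distance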. Scale: mean correlation with KSR1 profile: higher = expression change more like KSR1 knockdown; mean distance from KSR1 profile: higher = expression change less like KSR1 knockdown.
The whole screen tested about 14,000 reagents; this is a random part of them. 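Higher correlation or smaller distance means closer resemblance to KSR1 loss; control wells, including KSR1 knockdowns, recur on many plates.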 Further read-outs or replicates are left out here. Not given: the time to read-out.

| target | mean correlation with KSR1 profile | mean distance from KSR1 profile |
| --- | --- | --- |
| THBS4 (thrombospondin 4) | -0.233 | 2.96 |
| RANBP10 (RAN binding protein 10) | -0.27 | 2.16 |
| GJA8 (gap junction protein alpha 8) | -0.496 | 2.67 |
| RHBDD1 (rhomboid domain containing 1) | 0.918 | 2.03 |
| TMEM43 (transmembrane protein 43) | 0.733 | 1.43 |
| CHD8 (chromodomain helicase DNA binding protein 8) | -0.875 | 2.85 |
| IRF2BPL (interferon regulatory factor 2 binding protein like) | 0.249 | 1.12 |
| CD22 (CD22 molecule) | -0.209 | 2.17 |
| DDX25 (DEAD-box helicase 25) | -0.173 | 3.34 |
| ELL2 (elongation factor for RNA polymerase II 2) | -0.19 | 1.64 |
| GPR25 (G protein-coupled receptor 25) | 0.715 | 1.56 |
| SOX10 (SRY-box transcription factor 10) | -0.468 | 5.4 |
| MYH15 (myosin heavy chain 15) | -0.412 | 3 |
| ZC3H3 (zinc finger CCCH-type containing 3) | 0.273 | 2.1 |
| HOXC12 (homeobox C12) | 0.155 | 1.89 |
| GUCY2D (guanylate cyclase 2D, retinal) | 0.131 | 2.2 |
| SLC22A11 | -0.774 | 2.44 |
| MTUS1 (microtubule associated scaffold protein 1) | -0.202 | 2.85 |
| OSGIN1 (oxidative stress induced growth inhibitor 1) | -0.191 | 2.39 |
| SPTB (spectrin beta, erythrocytic) | -0.386 | 1.3 |
| ZNF691 (zinc finger protein 691) | -0.746 | 2.07 |
| PIK3C3 (phosphatidylinositol 3-kinase catalytic subunit type 3) | 0.171 | 1.39 |
| HOXC13 (homeobox C13) | -0.313 | 1.73 |
| TRIL (TLR4 interactor with leucine rich repeats) | -0.378 | 2.13 |
| PCDHGA9 (protocadherin gamma subfamily A, 9) | -0.816 | 2.45 |
| NEBL (nebulette) | -0.12 | 1.09 |
| CRYL1 (crystallin lambda 1) | -0.502 | 3.01 |
| CHAC1 (ChaC glutathione specific gamma-glutamylcyclotransferase 1) | 0.0379 | 0.934 |
| WNT5A (Wnt family member 5A) | -0.762 | 2.63 |
| DUSP14 (dual specificity phosphatase 14) | 0.294 | 1.74 |
| MCL1 (MCL1 apoptosis regulator, BCL2 family member) | -0.492 | 2.31 |
| ECD (ecdysoneless cell cycle regulator) | 0.0328 | 2.23 |
| ITGAE (integrin subunit alpha E) | -0.0958 | 1.78 |
| SLC35D1 | -0.157 | 1.19 |
| PRRG1 (proline rich and Gla domain 1) | -0.53 | 1.64 |
| SMAD2 (SMAD family member 2) | 0.734 | 1.76 |
| VN1R1 (vomeronasal 1 receptor 1) | 0.738 | 1.08 |
| TRHDE (thyrotropin releasing hormone degrading enzyme) | -0.162 | 5.04 |
| DPT (dermatopontin) | -0.49 | 3.11 |
| ATXN3 (ataxin 3) | 0.0417 | 1.53 |
| MATCAP2 (microtubule associated tyrosine carboxypeptidase 2) | 0.627 | 2.81 |
| CXCL9 (C-X-C motif chemokine ligand 9) | 0.111 | 2.39 |
| CDH6 (cadherin 6) | 0.403 | 1.5 |
| GAGE6 (G antigen 6) | -0.186 | 2.25 |
| GNAL (G protein subunit alpha L) | -0.471 | 1.64 |
| HTR5A (5-hydroxytryptamine receptor 5A) | 0.845 | 0.929 |
| UGT1A8 (UDP glucuronosyltransferase family 1 member A8) | 0.273 | 1.89 |
| NDUFS6 (NADH:ubiquinone oxidoreductase subunit S6) | 0.16 | 1.75 |
| RBMXL2 (RBMX like 2) | 0.889 | 0.351 |
| KCNJ5 (potassium inwardly rectifying channel subfamily J member 5) | 0.418 | 3.02 |

Laid out differently: entries from further up.
{"target": "HOXC12 (homeobox C12)", "mean correlation with KSR1 profile": 0.155, "mean distance from KSR1 profile": 1.89}
{"target": "GUCY2D (guanylate cyclase 2D, retinal)", "mean correlation with KSR1 profile": 0.131, "mean distance from KSR1 profile": 2.2}
{"target": "SLC22A11", "mean correlation with KSR1 profile": -0.774, "mean distance from KSR1 profile": 2.44}
{"target": "MTUS1 (microtubule associated scaffold protein 1)", "mean correlation with KSR1 profile": -0.202, "mean distance from KSR1 profile": 2.85}
{"target": "OSGIN1 (oxidative stress induced growth inhibitor 1)", "mean correlation with KSR1 profile": -0.191, "mean distance from KSR1 profile": 2.39}
